Measurements reported in PubChem BioAssay AID1508588 (Peter MacCallum Cancer Centre, 2020).

- Purpose: 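Knock-downs boosting vemurafenib effects on melanoma cell growth or lactate release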 (primary screen)
- System: human WM266.4 melanoma cells (BRAF V600 mutant)
- Reagent: siRNA pool against human genes, 40 nM
- Time to read-out: 96 h from transfection to read-out
- Conditions: vemurafenib 300 nM (about IC25), added 48 h after transfection, for 48 h; comparison arm got DMSO vehicle only
- Measurement: 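Ratios to non-targeting siRNA for cell gain, counted as DAPI nuclei after minus before drug and averaged over two replicates, and for absorbance-read medium lactate per cell; both binned into fold-change classes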
- Reading the numbers: cell gain with vemurafenib: higher = more cell gain than with non-targeting siRNA; lactate per cell with vemurafenib: higher = more lactate made per cell
- Active means: 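Enhancement is called by pairing each knock-down's vehicle-arm and drug-arm fold-change classes for viability or glycolysis; which class combinations qualify is not given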
- Calls: active = enhances vemurafenib effect; inactive = no enhancement seen
The whole screen tested about 18,000 reagents; this is a random part of them. In the full data, 790 (4.4%) were called active. 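Calls rest on a combination of fold-change classes in drug and vehicle arms, not all shown here.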 A reagent listed more than once was tested more than once; the source does not tell the runs apart.

Target gene	cell gain with vemurafenib	lactate per cell with vemurafenib	activity call
ZNF200	0.91	1.08	inactive
IQGAP1	0.43	0.89	inactive
NBN	0.83	0.68	inactive
MAP3K7CL	0.5	2.27	inactive
TOM1	0.17	2.46	inactive
SELENOW	0.22	1.27	inactive
KLK13	1.33	0.52	inactive
INO80E	0.95	0.26	inactive
OXGR1	0.63	0.9	inactive
FAM219B	0.53	0.96	inactive
NDUFAF1	0.21	0.68	active
PRDM4	0.85	1.29	inactive
FOXRED1	0.41	1.27	inactive
PYGL	0.74	0.65	active
ACTB	0.62	1.25	inactive
ZHX1	0.39	0.67	active
DNAJC2	0.61	1.14	inactive
OR5AR1	0.52	0.6	inactive
CBLIF	0.49	1.13	inactive
CEP170B	0.73	0.84	inactive
GPR139	0.9	0.9	inactive
RNF168	1.01	0.84	inactive
FGF21	0.95	0.7	inactive
ESYT1	0.54	1.34	inactive
SFTA2	0.61	0.68	inactive
FIS1	0.4	1.62	inactive
MKRN2	0.75	0.9	inactive
HCRT	1.1	0.36	inactive
ANO3	0.59	0.4	inactive
TNP1	0.31	1.66	inactive
ZNF169	0.89	0.76	inactive
NR2E1	0.89	0.89	inactive
SALL3	1.1	0.87	inactive
LOC389834	0.37	2.27	inactive
ACAT1	0.55	1.19	inactive
NGLY1	0.72	0.42	inactive
SNRPF	0.11	1.18	inactive
TUFM	0.48	1.86	inactive
ALDH3A2	1.07	1.12	inactive
TGFBR3	0.46	0.96	inactive
MIA3	0.91	1.33	inactive
ARHGEF25	0.72	0.62	inactive
LZIC	1.23	1.04	inactive
GMDS	0.43	2.39	inactive
CBLL1	0.68	0.61	inactive
USP12	0.73	1.08	inactive
POLR1D	0.2	0.62	inactive
RBM42	0.17	1.13	inactive
CCDC59	0.15	2.74	inactive
TTC4	0.84	0.73	inactive
CCS	0.82	1.05	inactive
ZNF367	0.69	0.87	inactive
MAP3K1	0.29	1.36	inactive
MAP3K1	0.3	2.06	inactive
MATR3	0.37	2.37	inactive
KLF5	1.09	1.53	inactive
NKRF	0.87	0.88	inactive
MTOR	0.47	0.45	inactive
ROR2	0.96	0.42	inactive
RALGPS2	0.78	0.62	inactive
DAAM1	1.02	0.65	inactive
KIF2B	1.03	0.61	inactive
CRYBA1	0.88	0.9	inactive
GAK	0.55	0.64	inactive
MAZ	0.51	1.84	inactive
KCNE1	0.67	0.92	inactive
ZNF324B	0.39	0.75	inactive
ANGPTL6	0.81	0.7	inactive
C9orf152	0.82	0.63	inactive
DLEU7	0.61	0.66	inactive
REC8	0.4	0.95	inactive
BBS1	0.84	1.38	inactive
ZCWPW1	0.62	0.34	active
ZFY	0.07	1.04	inactive
C8orf74	0.11	2.21	inactive
ZNF561	1.09	0.66	active
OR9Q2	0.49	0.78	inactive
SIX1	0.95	0.42	inactive
ANKRD53	0.48	1.48	inactive
MYEF2	0.25	0.52	inactive
SEC62	0.66	0.6	inactive
SGPL1	0.44	0.94	inactive
CDADC1	0.19	1.33	inactive
CDH12	1.01	0.55	inactive
MAP2K4	0.73	1	inactive
ANP32B	1.06	0.58	inactive
SLC12A7	0.24	0.82	inactive
CRIP3	0.87	0.82	inactive
JTB	0.68	0.92	inactive
MSLNL	0.67	0.98	inactive
VDAC3	0.25	0.65	inactive
PHF19	1.03	0.95	inactive
DCLRE1C	1.14	1.17	inactive
ZNF217	0.71	0.9	inactive
MS4A6A	0.4	0.94	inactive
FMO1	0.36	1.06	inactive
YIPF6	0.44	0.15	active
PIWIL1	0.71	0.66	inactive
HCG9	1	0.97	inactive
KIAA0408	0.82	0.66	inactive
ADAM20	1.1	0.34	inactive
RINL	1	0.6	inactive
MOGS	1.33	0.62	inactive
DNER	0.28	0.58	inactive
EARS2	0.04	1.17	inactive
MYL2	0.68	0.92	inactive
RPTOR	0.62	1	inactive

Ordered by “cell gain with vemurafenib” (high to low): 10 of the entries above
Target gene	cell gain with vemurafenib	lactate per cell with vemurafenib	activity call
KLF5	1.09	1.53	inactive
KIF2B	1.03	0.61	inactive
DAAM1	1.02	0.65	inactive
ROR2	0.96	0.42	inactive
CRYBA1	0.88	0.9	inactive
NKRF	0.87	0.88	inactive
RALGPS2	0.78	0.62	inactive
GAK	0.55	0.64	inactive
MAZ	0.51	1.84	inactive
MTOR	0.47	0.45	inactive
